The subject of one data set is bile canaliculi. Briefly: Fluorescence intensity detection in bile canaliculi (FIG. 3). The format is cell-based, human.
The next data set concerns bile system. Briefly: Diagnostic tool for the function of the bile system in vivo (injection in the portal vein). As to conditions: rat.
Setting [1] is: portal vein injection, 30 seconds and 2 minutes after injection, FIG. 10.

For the compound `COC(=O)[C@H](CCCCNc1ccc([N+](=O)[O-])c2nonc12)NC(=O)CC[C@@H](C)C1CCC2C3C(CC[C@@]21C)[C@@]1(C)CC[C@@H](O)CC1C[C@@H]3O` (stereo partly drawn) [Compound 15, Methyl-N2-((4R)-4-((3R,7S,10S,13R)-3,7-dihydroxy-10,13-dimethylhexadecahydro-1H-cyclopenta[a]phenanthren-17-yl)pentanoyl)-N6-(7-nitrobenzo[c][1,2,5]oxadiazol-4-yl)-L-lysinate], the “fluorescence intensity located in bile canaliculi” value (“fluorescence intensity located” for short) in the data set with bile canaliculi is reported as “weaker fluorescence signal”.
Still for that read-out and setting: with `COC(=O)C(CCCCNC(=O)CCc1ccc2n1[B-](F)(F)[N+]1=C(C)C=C(C)C1=C2)NC(=O)CCC(C)C1CCC2C3C(O)CC4CC(O)CCC4(C)C3CCC12C` [Compound 54, Methyl N6-(3-(5,5-difluoro-7,9-dimethyl-5H-dipyrrolo[1,2-c:2′,1′-f][1,3,2]diazaborinin-3-yl)propanoyl)-N2-((4R)-4-((3R,7S,10S,13R,17R)-3,7-dihydroxy-10,13-dimethylhexadecahydro-1H-cyclopenta[a]phenanthren-17-yl)pentanoyl)-L-lysinate] the entry was “very strong fluorescence intensity”.
On to `COC(=O)CNC(=O)C(CCCCNC(=O)CCc1ccc2n1[B-](F)(F)[N+]1=C(C)C=C(C)C1=C2)NC(=O)CCC(C)C1CCC2C3C(O)CC4CC(O)CCC4(C)C3CCC12C` [Compound 55, Methyl-N6-(3-(5,5-difluoro-7,9-dimethyl-5H-dipyrrolo[1,2-c:2′,1′-f][1,3,2]diazaborinin-3-yl)propanoyl)-N2-((4R)-4-((3R,7S,10S,13R,17R)-3,7-dihydroxy-10,13-dimethylhexadecahydro-1H-cyclopenta[a]phenanthren-17-yl)pentanoyl)-L-lysylglycinate], for which the “fluorescence intensity located” value with bile canaliculi is “very strong fluorescence intensity”. For the same compound, in the data set on bile system (between 0.1 mg and 1 mg into the portal vein, after 30 seconds and 2 minutes, UV light), the “fluorescence of the biliary network of the liver and the bile duct” value is “fluoresces”. Besides, in the data set with bile system (setting [1]), the “fluorescence of the bile duct” value is given as “significant fluorescence” and the “fluorescence of the liver” value was “slightly fluorescent”.
In the case of “Tauro-nor-THCA-24-DBD [reference compound]”, the “fluorescence intensity located” value in the data set on bile canaliculi is given as “much weaker fluorescence signal”.
